Chains of the proteins cited; added tags and fusions are not shown. Lines headed by an entry give the natural chain unless they say otherwise; changes in a name come on top.
UniProt P28074: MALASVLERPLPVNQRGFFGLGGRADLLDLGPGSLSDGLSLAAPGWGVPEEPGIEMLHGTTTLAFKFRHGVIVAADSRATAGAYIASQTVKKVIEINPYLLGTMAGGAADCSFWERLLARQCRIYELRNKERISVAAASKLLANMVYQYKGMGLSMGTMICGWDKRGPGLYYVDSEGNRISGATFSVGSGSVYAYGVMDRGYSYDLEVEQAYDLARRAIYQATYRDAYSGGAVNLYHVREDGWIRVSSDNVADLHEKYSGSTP

At least one structure is not confirmed: it was looked up by name or label, or the drawing left a doubt.
What follows are compounds tested against Human proteasome chymotrypsin-like protease (Homo sapiens, UniProt P28074) (assay: Proteasome CT-L inhibition, fluorescent substrate Suc-Leu-Leu-Val-Tyr-AMC).
Format: biochemical
Text: Experimental Method: By using a fluorescent substrate Suc-Leu-Leu-Val-Tyr-AMC to observe the inhibition of various compounds on activity of the enzyme, the inhibitory effect of the compounds was preliminarily evaluated. Human proteasome chymotrypsin-like protease may hydrolyze the sequence Tyr-AMC of the substrate to release AMC.
With `CC(C)C[C@H](NC(=O)N1CCC(C(=O)Nc2cnccn2)CC1)C(=O)N[C@@H](Cc1ccccc1)C(=O)N[C@@H](CC(C)C)C(=O)C1(C)CS1` (stereo partly drawn) [Compound 5t, 4-(pyrazin-2-yl carbamoyl)piperidin-1-oyl-Leu-Phe-Leu-cyclothione] the IC50 was over 1000 nM. Compound `CC(C)C[C@H](NC(=O)N1CCC(C(=O)Nc2ccc(F)cc2)CC1)C(=O)N[C@@H](Cc1ccccc1)C(=O)N[C@@H](CC(C)C)C(=O)C1(C)CS1` (stereo partly drawn) [Compound 5u, 4-(4-fluorophenyl carbamoyl)piperidin-1-oyl-Leu-Phe-Leu-cyclothione] has an IC50 of over 1000 nM. Compound `CC(C)C[C@H](NC(=O)N1CCC(C(=O)Nc2cnccn2)CC1)C(=O)N[C@@H](Cc1ccccc1)C(=O)N[C@@H](CC(C)C)C(=O)C1(C)CN1` (stereo partly drawn) [Compound 5v, 4-(pyrazin-2-yl carbamoyl)piperidin-1-oyl-Leu-Phe-Leu-aziridinone] has an IC50 of over 1000 nM. `CCN1CC1(C)C(=O)[C@H](CC(C)C)NC(=O)[C@H](Cc1ccccc1)NC(=O)[C@H](CC(C)C)NC(=O)N1CCC(C(=O)Nc2cnccn2)CC1` (stereo partly drawn) [Compound 5w, 4-(pyrazin-2-yl carbamoyl)piperidin-1-oyl-Leu-Phe-Leu-(N-ethyl aziridinone)] was tested, and the IC50 was over 1000 nM.

— patent US9856288B2, “Tripeptide epoxyketone compound constructed by heterocycle and preparation method and use thereof” (ZHEJIANG UNIVERSITY, priority 2014, dated 2018)
